This is one part of the list. These are further read-outs of the screen, such as a control signal, another cell line or another target. No call is given for them. The list favours compounds with an active or inconclusive main result. Words in brackets tell the shape of the fitted curve; partial curves, single points and poor fits give uncertain potencies.

The nature of the experiment: qHTS Assay for Lipid Storage Modulators in Drosophila S3 Cells.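 As to cell number change: cells counted by Cell Tracker Red CMTPX staining in the red channel.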 As to conditions: BODIPY lipid droplet fluorescence, 18-24 h; for cell number change: measured here: cell count max response, cells fed with added oleic acid. Summed up:
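Drosophila S3 cells got compounds at several concentrations plus oleic acid (400 uM solution). Laser-scanning cytometry with 488 nm excitation read lipid droplets at 500-530 nm and cells at 575-640 nm. Percent activity was relative to 20 uM Triacsin C.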
On the technique in general: In qHTS, concentration-response curves come from the screen itself.

[1] abbreviates: measured here: lipid fluorescence (Fed channel) AC50, cells fed with added oleic acid.
[2] abbreviates: measured here: cell number channel AC50, cells fed with added oleic acid.

Turning to `Cn1c(=O)c2c(nc(CN3CCN(c4ccc(F)cc4)CC3)n2Cc2ccccc2F)n(C)c1=O`, the cell number change was -17%. The AC50 under setting [1] was 0.58 µM [rising, single point]. Take `Cc1cccc(CN2CCCC(C(=O)N3CCCCC3)C2)c1` (stereo not given): the cell number change was determined as 67.6%. Under setting [2], the AC50 is 29.1 µM [rising, single point]. Turning to `CC1(NC(=O)c2cccc(S(=O)(=O)N3CCCc4ccccc43)c2)CCS(=O)(=O)C1` (stereo not given), the cell number change came out at 17.9%. Further, the concentration at half-maximal activity (AC50) under setting [1] is 6.51 µM [rising, partial curve].

For the compound `O=C(CSc1nc2ccc(Cl)cc2[nH]1)NCCc1ccc(Cl)cc1`, the cell number change is 18.2%. In addition, under setting [1], the AC50 was 29.1 µM [rising, single point]. Take `CN(C)/C=N/c1c(C(=O)NCc2ccccc2)nnn1Cc1ccccc1`: the cell number change came to 31.6%. For the same compound, under setting [2], the half-maximal activity concentration (AC50) is 23.1 µM [rising, single point]. The AC50 under setting [1] is 0.116 µM [falling, full curve, poor fit].

Consider `O=C(Nc1ccc(F)cc1)C1CC(=O)n2cnnc2N1` (stereo not given), for which the cell number change is -32.2%.

Turning to `Cc1cc2nnc(SCC(=O)NCc3cccs3)n2c2ccccc12`, the cell number change amounted to 1.23%. In addition, under setting [1], the concentration at half-maximal activity (AC50) was 0.13 µM [rising, full curve]. With `O=C(O)Cc1ccc(C(=O)c2ccc(F)cc2)s1`, the cell number change was -6.72%. In addition, the AC50 under setting [1] was 6.51 µM [falling, single point].

Turning to `C=CCN(C(=O)c1csnn1)C(C(=O)NC1CCCC1)c1c(F)cccc1Cl` (stereo not given), under setting [1], the half-maximal activity concentration (AC50) was 7.31 µM [falling, partial curve]. Regarding `COc1ccc(NC(=O)c2cccc(N3C(=O)NC4CC3(C)Oc3ccccc34)c2)cc1` (stereo not given), the cell number change stood at 121%. Further, under setting [2], the AC50 is 20.6 µM [rising, partial curve]. Further, under setting [1], the AC50 is 3.26 µM [rising, partial curve]. In the case of `Cc1cccc(N(CC(=O)NC2CCCC2)C(=O)CCC(=O)Nc2nc(C)cs2)c1`, the cell number change was 10%.

Take `COc1ccc(S(=O)(=O)NC2CCSc3ccccc32)cc1NC(C)=O` (stereo not given): the cell number change is -2.63%. Take `O=C(COC(=O)/C=C/c1cccs1)Nc1cccc(S(=O)(=O)N2CCCC2)c1`: the cell number change was -5.85%. In addition, the AC50 under setting [1] is 6.51 µM [rising, single point]. Turning to `Cc1cccc(Cc2nnc(CCC(=O)NCc3ccncc3C)o2)c1`, the cell number change was -18.3%. Further, the AC50 under setting [1] was 5.8 µM [falling, partial curve]. Regarding `CCOc1ccc(/C=N/n2c(SC)nnc2-c2ccccc2)cc1OCC`, the cell number change turned out to be 7.3%. Moreover, under setting [1], the half-maximal activity concentration (AC50) was 2.06 µM [rising, partial curve, poor fit]. On to `COc1ccc(CN2C(=O)COc3ccccc32)cc1`, for which the cell number change amounted to 2.46%. Moreover, under setting [1], the concentration at half-maximal activity (AC50) is 0.411 µM [rising, single point]. `CCO[C@H]1OC(C(=O)NC2CC2)=C[C@@H](c2ccccc2)[C@@H]1CCCO`: the cell number change amounted to 20.2%. Moreover, the AC50 under setting [1] was 5.17 µM [rising, partial curve, poor fit]. Regarding `Cn1c(SCc2cccc(F)c2)nnc1-c1ccccn1`, the cell number change worked out at 18.6%. In addition, under setting [1], the AC50 was 29.1 µM [rising, single point].

Turning to `Cc1cccc(NC(=O)CNC(=O)COC(=O)c2ccc(C(C)(C)C)cc2)c1C`, the cell number change amounted to 36.6%. Moreover, the AC50 under setting [2] is 0.0651 µM [rising, full curve, poor fit]. Further, the AC50 under setting [1] is 23.1 µM [rising, partial curve, poor fit].

On to `CC(C)=CC1C(C(=O)Nc2ccc(Br)cn2)C1(C)C` (stereo not given), for which the cell number change was -34%. Moreover, the AC50 under setting [2] was 29.1 µM [falling, single point]. On to `O=C(CN1CCCC1)Nc1c2c(nc3ccccc13)N(Cc1ccccc1)CC2`, for which the cell number change turned out to be 22.2%. For the same compound, the AC50 under setting [1] was 1.84 µM [rising, partial curve, poor fit]. As to `CN(c1cccc(NC(=O)c2cccc([N+](=O)[O-])c2)c1)S(C)(=O)=O`, the cell number change turned out to be 10.2%. Besides, the concentration at half-maximal activity (AC50) under setting [1] was 25.9 µM [falling, single point]. As for `CN(C)c1nnc(-c2ccc(Cl)cc2)o1`, the cell number change worked out at 47.5%. Under setting [2], the concentration at half-maximal activity (AC50) is 29.1 µM [rising, single point]. In addition, the half-maximal activity concentration (AC50) under setting [1] is 18.4 µM [rising, single point].

As for `COc1ccc(N(C(=O)c2snc(C(N)=O)c2N)C(C(=O)NCc2ccccc2)c2ccc(O)cc2)cc1` (stereo not given), the cell number change is -0.806%. The half-maximal activity concentration (AC50) under setting [1] is 0.00461 µM [falling, full curve]. With `COc1ccc(CCNS(=O)(=O)c2ccc(OC)c(OC)c2)cc1OC`, the cell number change stood at 14.3%. Besides, the concentration at half-maximal activity (AC50) under setting [1] is 29.1 µM [rising, single point]. As to `CCOc1ccc(-n2c(SCc3nc(-c4cccs4)no3)nnc2-c2ccncc2)cc1`, the AC50 was 0.411 µM [rising, partial curve, poor fit] under setting [2] and 0.411 µM [rising, partial curve, poor fit] under setting [1]. Take `COc1ccc(N2CC(C(=O)N3CCN(C(=O)c4ccco4)CC3)CC2=O)cc1` (stereo not given): the cell number change was -1.9%. For the same compound, the AC50 under setting [1] is 29.1 µM [rising, partial curve, poor fit]. As for `CCn1c(SCC(=O)O)nc2ccccc21`, the cell number change was -0.36%. Also, under setting [1], the AC50 is 0.58 µM [falling, full curve, poor fit]. `Cc1c(C)n(Cc2ccccc2)c2ccc(C(=O)NCCN3CCOCC3)cc12`: the cell number change came out at 41.7%. For the same compound, the half-maximal activity concentration (AC50) under setting [2] is 16.4 µM [rising, single point]. Besides, under setting [1], the AC50 was 25.9 µM [rising, single point]. Consider `CC(C)(C)n1cnc2cc(NC(=O)c3ccccc3)ccc21`, for which the cell number change is -9.26%. Under setting [1], the AC50 was 6.51 µM [falling, single point]. As to `CCOc1cccc(CNCc2ccncc2)c1`, the AC50 under setting [1] was 29.1 µM [rising, single point].

In the case of `COc1cc(OC)cc(C(=O)NNC(=S)Nc2ccccc2OC)c1`, the cell number change worked out at 1.14%. Besides, the concentration at half-maximal activity (AC50) under setting [2] is 3.26 µM [rising, partial curve]. Also, the AC50 under setting [1] is 2.91 µM [rising, partial curve]. `CC(C)N=C1SCC(C)(/C=N/O)S1` (stereo not given): the cell number change is 7.12%. As to `COc1ccc(C(=O)COC(=O)c2cc(C)no2)c(OC)c1`, the cell number change worked out at 8.43%. Besides, the concentration at half-maximal activity (AC50) under setting [1] was 0.731 µM [falling, full curve].

As to `Cc1oc(-c2ccccc2F)nc1CSCC(=O)NC1CCC(C)CC1` (stereo not given), the concentration at half-maximal activity (AC50) under setting [1] was 6.51 µM [rising, partial curve]. As for `CCCOP(=O)(c1ccc(N(C)C)cc1)C(O)c1ccncc1` (stereo not given), the cell number change was determined as 3.52%. In addition, the AC50 under setting [1] was 0.00651 µM [falling, full curve, poor fit]. Consider `CSc1cccc(NC(=S)NC(=O)c2cccnc2)c1`, for which the cell number change was determined as 9.12%. Still for that read-out and setting: next, `O=[N+]([O-])c1cc(-c2ccn[nH]2)ccc1Cl`: 9.91%.

Turning to `CC(C(=O)NC1CCCCC1)N1CCN(S(=O)(=O)c2cccs2)CC1` (stereo not given), the cell number change worked out at 17.1%. In addition, the AC50 under setting [1] is 5.17 µM [rising, full curve, poor fit].

The term AC50 denotes the concentration giving half of the maximal activity seen.

(Values after PubChem BioAssay AID2685 (National Center for Advancing Translational Sciences (NCATS), 2010).)
